Test results: patent US20040241754A1, “Modulating neuronal plasticity” (The Salk Institute for Biological Studies, priority 2003, published 2004)
At least one structure is not confirmed: it was looked up by name or label, or the drawing left a doubt.

System: mossy fiber synapses of hippocampal CA3 pyramidal neurons
Test: Forskolin-mediated potentiation of mossy fiber EPSCs
Format: cell-based, mice
Conditions: bath application

## C=C[C@@]1(C)CC(=O)[C@]2(O)[C@@]3(C)[C@@H](O)CCC(C)(C)[C@@H]3[C@H](O)[C@H](OC(C)=O)[C@@]2(C)O1 [forskolin, reference compound]
  effect on forskolin enhancement / mossy fiber transmission: mediates enhancement of hippocampal mossy fiber transmission
